The list shows a part of the results, in another mix than the full data. At the low end of the ranking, values are background and their order means little.

Chains of the proteins cited; added tags and fusions are not shown. Lines headed by an entry give the natural chain unless they say otherwise; changes in a name come on top.
UniProt Q9Y603: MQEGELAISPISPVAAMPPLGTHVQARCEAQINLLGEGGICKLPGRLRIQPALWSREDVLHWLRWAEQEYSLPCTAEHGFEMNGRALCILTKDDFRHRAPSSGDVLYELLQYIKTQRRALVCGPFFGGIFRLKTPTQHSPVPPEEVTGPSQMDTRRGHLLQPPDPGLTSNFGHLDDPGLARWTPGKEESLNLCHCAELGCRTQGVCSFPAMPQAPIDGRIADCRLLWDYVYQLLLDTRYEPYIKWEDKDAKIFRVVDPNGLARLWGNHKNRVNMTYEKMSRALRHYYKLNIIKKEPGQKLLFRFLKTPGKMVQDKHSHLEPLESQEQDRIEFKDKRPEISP
UniProt P41212: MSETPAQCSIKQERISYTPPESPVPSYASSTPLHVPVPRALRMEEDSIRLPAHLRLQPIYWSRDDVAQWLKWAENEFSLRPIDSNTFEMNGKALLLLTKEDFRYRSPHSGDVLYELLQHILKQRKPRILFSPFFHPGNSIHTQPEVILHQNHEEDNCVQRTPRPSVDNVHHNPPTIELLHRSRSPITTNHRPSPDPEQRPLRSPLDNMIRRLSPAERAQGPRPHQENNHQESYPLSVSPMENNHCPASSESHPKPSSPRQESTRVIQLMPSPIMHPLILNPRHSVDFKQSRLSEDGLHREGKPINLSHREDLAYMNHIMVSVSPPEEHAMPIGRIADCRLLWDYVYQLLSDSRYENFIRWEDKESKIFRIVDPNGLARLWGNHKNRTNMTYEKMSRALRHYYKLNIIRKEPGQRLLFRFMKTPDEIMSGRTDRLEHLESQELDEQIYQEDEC

The record followed here is paper PMC7862700.

What all share (assay): DAPPL (digital affinity profiling via proximity ligation, sequencing)
Holding throughout (details): 10 mM Tris-HCl pH 7.5, 50 mM NaCl, 1 mM DTT, 4% glycerol, room temperature, 30 min; GST-TFs on glutathione beads, 16-mer random dsDNA library, 0.1% …; high values mean tight binding; double strand, one strand shown; scale: fold enrichment (6-mer frequency, TF over GST control)

Experiment [1] addresses T1, ELF3 (UniProt P78545).
T1 sequence: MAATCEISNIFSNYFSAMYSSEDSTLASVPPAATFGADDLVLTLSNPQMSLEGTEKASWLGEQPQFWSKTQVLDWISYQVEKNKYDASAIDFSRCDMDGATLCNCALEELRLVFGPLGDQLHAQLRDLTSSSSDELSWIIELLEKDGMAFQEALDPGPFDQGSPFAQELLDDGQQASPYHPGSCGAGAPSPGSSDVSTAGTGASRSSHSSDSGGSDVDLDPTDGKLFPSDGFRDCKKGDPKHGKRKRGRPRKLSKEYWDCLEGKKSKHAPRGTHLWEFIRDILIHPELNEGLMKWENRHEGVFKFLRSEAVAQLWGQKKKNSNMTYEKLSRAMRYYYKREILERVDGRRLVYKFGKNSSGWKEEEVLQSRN

For experiment [2], the target named is ETV7 (UniProt Q9Y603).
Experiment [3] addresses ETV6 (UniProt P41212).

Consider AGGTGA, for which the binding signal in experiment [1] turned out to be 0.486; in experiment [2], 0.518; in experiment [3] it was 0.495.
Consider GACGGA, for which the binding signal in experiment [1] stood at 0.588; in experiment [2] it was 0.519; in experiment [3] it was 0.54.
For GCACAG, the binding signal is 0.764 in experiment [1], 0.763 in experiment [2] and 0.708 in experiment [3].
In the case of GAGACG, the binding signal in experiment [1] worked out at 0.351; in experiment [2], 0.361; in experiment [3], 0.321.
Turning to GCCGTG, the values for the binding signal in experiment [1], in experiment [2] and in experiment [3] were 0.242, 0.273 and 0.244, respectively.
Regarding GACGAA, the binding signal amounted to 0.866 in experiment [1], 0.906 in experiment [2] and 0.813 in experiment [3].
For TGAGGT, the binding signal worked out at 0.625 in experiment [1], 0.64 in experiment [2] and 0.564 in experiment [3].
On the same counts, the results for CAGCGT are 0.761, 0.771 and 0.739.
For CCCGTG the same measures were 0.574, 0.542 and 0.492.
Turning to GACGCG, the values for the binding signal in experiment [1], in experiment [2] and in experiment [3] were 0.613, 0.628 and 0.604, respectively.
For GGCGTG the same measures were 0.301, 0.356 and 0.346.
On the same counts, the results for GGTTAG are 0.861, 0.798 and 0.788.
Turning to GTCCGT, the binding signal in experiment [1] was determined as 0.498; in experiment [2] it was 0.47; in experiment [3], 0.509.
GCAGAC: the binding signal in experiment [1] amounted to 0.753; in experiment [2] it was 0.761; in experiment [3] it was 0.78.
With AGAAAG, the binding signal is 0.9 in experiment [1], 0.862 in experiment [2] and 0.897 in experiment [3].
On the same counts, the results for GGTGGC are 0.71, 0.797 and 0.649.
Regarding TGAGAG, the binding signal in experiment [1] amounted to 0.579; in experiment [2], 0.608; in experiment [3], 0.587.
In the case of CAAAGG, the binding signal came to 0.88 in experiment [1], 0.85 in experiment [2] and 0.802 in experiment [3].
As for AGGCAA, the binding signal in experiment [1] turned out to be 0.82; in experiment [2], 0.819; in experiment [3], 0.717.
Turning to GACGGG, the values for the binding signal in experiment [1], in experiment [2] and in experiment [3] were 0.39, 0.541 and 0.405, respectively.
Turning to GCTGAG, the binding signal in experiment [1] was found to be 0.58; in experiment [2], 0.711; in experiment [3], 0.675.
For ACAGAG the same measures were 0.765, 0.859 and 0.715.
GAGCCT: the binding signal in experiment [1] was 0.888; in experiment [2] it was 0.76; in experiment [3], 0.865.
For GCGAGG the same measures were 0.49, 0.671 and 0.621.
Consider GAGATC, for which the binding signal in experiment [1] was 0.453; in experiment [2], 0.506; in experiment [3], 0.442.
With TCGGAA, the binding signal turned out to be 0.615 in experiment [1], 0.569 in experiment [2] and 0.612 in experiment [3].
In the case of GCGTCG, the figures for the binding signal in experiment [1], in experiment [2] and in experiment [3] were 0.752, 0.854 and 0.817, respectively.
On the same counts, the results for AGGCCA are 0.708, 0.664 and 0.598.
Regarding CGAGGC, the binding signal in experiment [1] came to 0.833; in experiment [2] it was 0.68; in experiment [3] it was 0.639.
On the same counts, the results for ATGGAG are 0.489, 0.594 and 0.6.
Regarding CAGACC, the binding signal in experiment [1] was found to be 0.777; in experiment [2], 0.748; in experiment [3] it was 0.823.
For the sequence TGCCAG, the binding signal in experiment [1] was 0.689; in experiment [2], 0.758; in experiment [3], 0.673.
Regarding AGTCGA, the results for the binding signal in experiment [1], in experiment [2] and in experiment [3] were 0.38, 0.487 and 0.366, respectively.
Turning to TGAGGG, the binding signal in experiment [1] was determined as 0.719; in experiment [2] it was 0.63; in experiment [3] it was 0.652.
As to AGGCGA, the binding signal worked out at 0.502 in experiment [1], 0.549 in experiment [2] and 0.48 in experiment [3].
On to GCTGGA, for which the binding signal in experiment [1] was 0.701; in experiment [2] it was 0.775; in experiment [3], 0.807.
Regarding ACTGTG, the binding signal was 0.52 in experiment [1], 0.441 in experiment [2] and 0.509 in experiment [3].
On the same counts, the results for AGGAGC are 0.394, 0.425 and 0.413.
On the same counts, the results for GTCGTG are 0.403, 0.454 and 0.391.
On the same counts, the results for GACGCT are 0.863, 0.776 and 0.696.
For the sequence ACAACG, the binding signal in experiment [1] was determined as 0.787; in experiment [2], 0.942; in experiment [3], 0.953.
Regarding GTAGGA, the binding signal in experiment [1] was determined as 0.527; in experiment [2], 0.613; in experiment [3] it was 0.68.
As to CGGAGG, the figures for the binding signal in experiment [1], in experiment [2] and in experiment [3] were 0.291, 0.296 and 0.266, respectively.
On to CGTGCC, for which the binding signal turned out to be 0.72 in experiment [1], 0.861 in experiment [2] and 0.764 in experiment [3].
Consider GCACGT, for which the values for the binding signal in experiment [1], in experiment [2] and in experiment [3] were 0.76, 0.858 and 0.772, respectively.
On to TAGCCA, for which the results for the binding signal in experiment [1], in experiment [2] and in experiment [3] were 0.951, 0.786 and 0.748, respectively.
As to GGTGTC, the results for the binding signal in experiment [1], in experiment [2] and in experiment [3] were 0.893, 0.807 and 0.777, respectively.
TGCGGG: the binding signal came out at 0.817 in experiment [1], 0.854 in experiment [2] and 0.854 in experiment [3].
As to GTGTGT, the binding signal in experiment [1] is 0.517; in experiment [2], 0.57; in experiment [3] it was 0.493.
Consider TATCGG, for which the results for the binding signal in experiment [1], in experiment [2] and in experiment [3] were 0.847, 0.83 and 0.778, respectively.
On to GAGCTA, for which the figures for the binding signal in experiment [1], in experiment [2] and in experiment [3] were 1.02, 0.887 and 0.92, respectively.
AGACGG: the binding signal came to 0.379 in experiment [1], 0.385 in experiment [2] and 0.384 in experiment [3].
On the same counts, the results for CGCAGT are 0.675, 0.788 and 0.777.
For the sequence CAGACG, the binding signal in experiment [1] is 0.505; in experiment [2], 0.556; in experiment [3], 0.436.
As for GGGCAC, the figures for the binding signal in experiment [1], in experiment [2] and in experiment [3] were 0.835, 0.819 and 0.769, respectively.
In the case of GGTACG, the binding signal in experiment [1] was determined as 0.927; in experiment [2], 0.912; in experiment [3] it was 0.829.
Turning to GCGGTG, the binding signal in experiment [1] worked out at 0.453; in experiment [2] it was 0.56; in experiment [3] it was 0.53.
Regarding GGCAGG, the figures for the binding signal in experiment [1], in experiment [2] and in experiment [3] were 0.774, 0.622 and 0.686, respectively.
For the sequence AGGGCA, the values for the binding signal in experiment [1], in experiment [2] and in experiment [3] were 0.836, 0.81 and 0.801, respectively.
For the sequence AGACCC, the binding signal in experiment [1] is 0.721; in experiment [2] it was 0.621; in experiment [3] it was 0.767.
